These are yes or no findings as the source states them, for the method shown. Some entries that bind do so weakly or less than the wild type.
T1: complement compound 4 (CC4) (human) (UniProt P0C0L4)
T1 sequence (looked up): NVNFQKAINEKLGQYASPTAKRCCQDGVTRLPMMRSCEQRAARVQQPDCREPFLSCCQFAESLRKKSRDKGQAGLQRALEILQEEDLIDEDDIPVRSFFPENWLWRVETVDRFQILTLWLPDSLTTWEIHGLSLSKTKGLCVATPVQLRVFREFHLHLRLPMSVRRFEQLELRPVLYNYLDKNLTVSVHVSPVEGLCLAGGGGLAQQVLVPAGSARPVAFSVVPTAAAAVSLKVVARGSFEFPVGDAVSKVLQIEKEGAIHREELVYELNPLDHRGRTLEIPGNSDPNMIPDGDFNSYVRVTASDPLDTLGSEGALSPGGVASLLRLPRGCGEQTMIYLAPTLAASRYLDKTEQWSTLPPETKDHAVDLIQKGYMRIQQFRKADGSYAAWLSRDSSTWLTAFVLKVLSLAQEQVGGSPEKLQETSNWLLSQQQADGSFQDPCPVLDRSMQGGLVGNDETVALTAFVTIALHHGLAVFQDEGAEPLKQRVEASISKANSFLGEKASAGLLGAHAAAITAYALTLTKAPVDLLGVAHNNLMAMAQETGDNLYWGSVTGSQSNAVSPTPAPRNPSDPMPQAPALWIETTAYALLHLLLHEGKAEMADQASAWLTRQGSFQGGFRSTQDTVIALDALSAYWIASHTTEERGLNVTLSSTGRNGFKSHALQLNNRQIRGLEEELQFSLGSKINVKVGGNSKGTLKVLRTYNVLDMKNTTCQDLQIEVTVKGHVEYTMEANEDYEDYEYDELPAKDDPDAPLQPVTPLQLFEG

Amino acid sequences for entries named in this document (tags omitted). Residues count along the entry.
UniProt P07359, residues 17-531: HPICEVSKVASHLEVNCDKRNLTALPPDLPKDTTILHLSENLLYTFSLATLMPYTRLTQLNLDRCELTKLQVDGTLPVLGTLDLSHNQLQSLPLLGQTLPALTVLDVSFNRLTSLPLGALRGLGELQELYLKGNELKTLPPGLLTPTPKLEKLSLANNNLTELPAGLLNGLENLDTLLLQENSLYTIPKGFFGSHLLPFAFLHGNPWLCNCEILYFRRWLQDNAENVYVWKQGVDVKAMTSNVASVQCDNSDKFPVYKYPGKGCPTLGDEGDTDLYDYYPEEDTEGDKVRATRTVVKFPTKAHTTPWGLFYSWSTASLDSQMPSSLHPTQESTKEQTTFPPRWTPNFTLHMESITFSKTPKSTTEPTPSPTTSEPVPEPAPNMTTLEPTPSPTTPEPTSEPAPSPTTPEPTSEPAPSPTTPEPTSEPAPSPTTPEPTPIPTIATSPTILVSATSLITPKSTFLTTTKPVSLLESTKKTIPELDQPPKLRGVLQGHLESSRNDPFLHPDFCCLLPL


Tests used:
[1] = target: glycocalicin (human platelet derived) (human) (UniProt P07359); assay: Western blot of platelet proteins
[2] = target: glycocalicin (human platelet derived) (human) (UniProt P07359); assay: Western blot
[3] = target: T1, complement compound 4 (CC4) (human); assay: Western blot of human plasma proteins
[4] = target: T1, complement compound 4 (CC4) (human); assay: summary of the experiments
[5] = target: T1, complement compound 4 (CC4) (human); assay: immunoblot of human plasma, purification and peptide mapping

Binder | binding [1] | binding [2] | binding [3] | binding [4] | binding [5]
Y17 scFv (scFv) scFv: EVQLVESGGGVVRPGGSLRLSCAASGFTFDDYGMSWVRQAPGKGLEWVSGINWNGGSTGYADSVKGRFTISRDNAKNSLYLQMNSLRAEDTAVYYCARLTHPYFWGQGTLVTVSRGGGGSGGGGSGGGGSSELTQDPAVSVALGQTVRITCQGDSLRSYYASWYQQKPGQAPVLVIYGKNNRPSGIPDRFSGSSSGNTASLTITGAQAEDEADYYCNSRDSSGNHVVFGGGTKLTVLGAAAEQKLISEEDLNGAA | binds | binds | – | – | –
Y1 scFv (scFv) scFv: EVQLVESGGGVVRPGGSLRLSCAASGFTFDDYGMSWVRQAPGKGLEWVSGINWNGGSTGYADSVKGRFTISRDNAKNSLYLQMNSLRAEDTAVYYCARMRAPVIWGQGTLVTVSRGGGGSGGGGSGGGGSSELTQDPAVSVALGQTVRITCQGDSLRSYYASWYQQKPGQAPVLVIYGKNNRPSGIPDRFSGSSSGNTASLTITGAQAEDEADYYCNSRDSSGNHVVFGGGTKLTVLGAAAEQKLISEEDLNGAA | – | – | binds | binds | binds
